Results as given in paper doi:10.1101/2023.12.15.570541.
Results are given in words; binding and its absence hold for the method and conditions named. For part of these data: Binding seen in cells or lysates may run through a third protein. Some results given as binding are weak or reduced against the parent protein; the word gives no strength. Where a sequence is shown, tags or fusion partners need not be part of it. Values belong to the binder of their own block, whether it stands above or below them.

What was measured:
[1] = target: T1, MFSD1-strep (mouse Major Facilitator Superfamily Domain Containing 1 with N-terminal Twin-Streptavidin-tag) (mouse) (UniProt Q9DC37); assay: tandem affinity co-purification + SEC
T1 sequence: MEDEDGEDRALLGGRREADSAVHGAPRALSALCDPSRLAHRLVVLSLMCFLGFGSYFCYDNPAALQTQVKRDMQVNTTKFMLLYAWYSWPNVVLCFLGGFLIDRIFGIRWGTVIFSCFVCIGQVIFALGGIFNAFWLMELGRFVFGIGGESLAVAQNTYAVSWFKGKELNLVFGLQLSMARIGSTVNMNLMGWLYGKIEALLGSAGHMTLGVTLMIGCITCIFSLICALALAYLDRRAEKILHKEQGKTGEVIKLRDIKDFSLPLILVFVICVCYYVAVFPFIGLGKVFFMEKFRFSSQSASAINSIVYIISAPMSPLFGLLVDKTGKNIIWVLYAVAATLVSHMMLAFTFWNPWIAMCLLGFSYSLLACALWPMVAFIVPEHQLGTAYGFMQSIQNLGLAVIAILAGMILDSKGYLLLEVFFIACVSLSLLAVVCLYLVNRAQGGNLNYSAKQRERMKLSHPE

[2] = target: T1, MFSD1-strep (mouse Major Facilitator Superfamily Domain Containing 1 with N-terminal Twin-Streptavidin-tag) (mouse); assay: pull-down
[3] = target: T2, MFSD1 as it stands in the GLMP-MFSD1 fusion (cryo-EM structure) (mouse) (UniProt Q9DC37); assay: cryo-EM structure
T2 sequence: T1 sequence

binding [1]: binds
binding [2]: binds
B1: GLMP-Ct-His-GFP (mouse Glycosylated Lysosomal Membrane Protein with C-terminal TEV site, GFP and 8xHis) (protein, UniProt Q9JHJ3 36-404)
chain: EETRQVSMEVISGWPNPQNLLHIRAVGSNSTLHYVWSSLGPPAVVLVATNTTQSVLSVNWSLLLSPDPAGALMVLPKSSIQFSSALVFTRLLEFDSTNASEGAQPPGKPYPPYSLAKFSWNNITNSLDLANLSADFQGRPVDDPTGAFANGSLTFKVQAFSRSGRPAQPPRLLHTADVCQLEVALVGASPRGNHSLFGLEVATLGQGPDCPSVNERNSIDDEYAPAVFQLNQLLWGSSPSGFMQWRPVAFSEEERARESALPCQASTLHSTLASSLPHSPIVQAFFGSQNNFCAFNLTFGAPTGPGYWDQYYLCWSMLLGMGFPPVDIFSPLVLGIMAVALGAPGLMFLGGGLFLLLRHRRYSEYQSIN
modifications: N-glycosylated

binding [3]: binds
B2: GLMP as it stands in the GLMP-MFSD1 fusion (cryo-EM structure) (protein, UniProt Q9JHJ3 36-391)
chain: EETRQVSMEVISGWPNPQNLLHIRAVGSNSTLHYVWSSLGPPAVVLVATNTTQSVLSVNWSLLLSPDPAGALMVLPKSSIQFSSALVFTRLLEFDSTNASEGAQPPGKPYPPYSLAKFSWNNITNSLDLANLSADFQGRPVDDPTGAFANGSLTFKVQAFSRSGRPAQPPRLLHTADVCQLEVALVGASPRGNHSLFGLEVATLGQGPDCPSVNERNSIDDEYAPAVFQLNQLLWGSSPSGFMQWRPVAFSEEERARESALPCQASTLHSTLASSLPHSPIVQAFFGSQNNFCAFNLTFGAPTGPGYWDQYYLCWSMLLGMGFPPVDIFSPLVLGIMAVALGAPGLMFLGGGLFLL
modifications: N-glycans on Asn85, Asn94, Asn157, Asn228 and Asn331
